Results from patent US20080125365A1 (UNIVERSITY OF IOWA RESEARCH FOUNDATION, published 2008).
Residue numbers refer to the chain shown, from its start. Numbers in names are those of the source. These are yes or no findings as the source states them, for the method shown. For some assays here: Binding seen in cells or lysates may run through a third protein. Some results given as binding are weak or reduced against the parent protein; the word gives no strength. For some assays here: Sequences can lack the tags named with a protein.

Amino acid sequences for entries named in this document (tags omitted). A change or cut given only in a name is not applied to a line headed by its entry. Chains listed by the source or under a name are the forms on record and can include a tag or linker. Residues count along the entry.
UniProt O00206: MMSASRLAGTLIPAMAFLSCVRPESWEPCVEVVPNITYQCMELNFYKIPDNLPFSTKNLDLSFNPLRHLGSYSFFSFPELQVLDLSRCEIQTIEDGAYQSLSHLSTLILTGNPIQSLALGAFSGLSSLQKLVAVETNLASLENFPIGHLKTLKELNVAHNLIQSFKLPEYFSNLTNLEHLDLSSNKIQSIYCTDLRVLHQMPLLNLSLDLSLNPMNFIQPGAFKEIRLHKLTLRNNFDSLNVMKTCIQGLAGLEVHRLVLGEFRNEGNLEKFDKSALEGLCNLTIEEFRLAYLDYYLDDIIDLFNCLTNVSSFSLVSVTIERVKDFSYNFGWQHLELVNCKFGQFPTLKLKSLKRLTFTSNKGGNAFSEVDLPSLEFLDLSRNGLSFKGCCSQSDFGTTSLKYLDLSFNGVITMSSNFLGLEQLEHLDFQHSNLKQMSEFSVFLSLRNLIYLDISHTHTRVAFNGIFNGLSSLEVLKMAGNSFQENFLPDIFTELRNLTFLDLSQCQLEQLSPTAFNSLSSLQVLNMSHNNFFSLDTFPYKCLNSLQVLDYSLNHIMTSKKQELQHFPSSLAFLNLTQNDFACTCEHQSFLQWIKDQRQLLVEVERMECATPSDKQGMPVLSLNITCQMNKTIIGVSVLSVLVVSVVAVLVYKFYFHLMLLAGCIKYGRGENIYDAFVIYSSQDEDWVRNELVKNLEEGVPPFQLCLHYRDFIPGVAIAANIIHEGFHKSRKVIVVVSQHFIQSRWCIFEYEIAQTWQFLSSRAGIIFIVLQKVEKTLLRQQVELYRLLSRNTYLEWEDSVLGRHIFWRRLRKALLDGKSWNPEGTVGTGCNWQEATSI
recombinant soluble TLR4 extracellular domain (amino acids 24-634), FLAG-tagged: residues 24-634 of O00206

What was measured:
[1] = target: TLR4 stably expressed on HEK293 cells (HEK/TLR4) (UniProt O00206); assay: cell association of radiolabelled complex with HEK/TLR4 cells
[2] = target: recombinant soluble TLR4 extracellular domain (amino acids 24-634), FLAG-tagged (UniProt O00206); assay: gel filtration of radiolabelled complex with TLR4ECD medium, Scatchard analysis
[3] = target: TLR4 stably expressed on HEK293 cells (HEK/TLR4) (UniProt O00206); assay: cell-associated radioactivity after overnight incubation with HEK or HEK/TLR4 cells
[4] = target: TLR4 stably expressed on HEK293 cells (HEK/TLR4) (UniProt O00206); assay: cell-associated radioactivity after overnight incubation with HEK/TLR4 cells (0.75 ng/ml 3H-LOS)
[5] = target: recombinant soluble TLR4 extracellular domain (amino acids 24-634), FLAG-tagged (UniProt O00206); assay: ~75 pM TLR4ECD with increasing [3H]LOS:MD-2, Mr ~190,000 complex by Sephacryl S200 gel filtration
[6] = target: recombinant soluble TLR4 extracellular domain (amino acids 24-634), FLAG-tagged (UniProt O00206); assay: competition of weakly labelled native complex with [3H]LOS:MD-2 for soluble TLR4ECD, gel filtration
[7] = target: recombinant soluble TLR4 extracellular domain (amino acids 24-634), FLAG-tagged (UniProt O00206); assay: gel filtration (Sephacryl S200/S300) of 1 nM [3H]LOS:MD-2 with TLR4ECD medium; co-capture on Ni2+ resin and anti-FLAG M2 agarose; Mr ~190,000 complex
[8] = target: TLR4 stably expressed on HEK293 cells (HEK/TLR4) (UniProt O00206); assay: co-precipitation and/or FACS
[9] = target: TLR4 stably expressed on HEK293 cells (HEK/TLR4) (UniProt O00206); assay: method not described at this place
[10] = target: T1, TLR4 stably expressed on HEK293 cells (HEK/TLR4) (UniProt O00206 24-839, limits assumed); assay: co-precipitation and/or FACS
T1 construct: whole, on cells; Cells from Eisai Research Institute (Yang et al., 2000) or Invivogen; also called HEK293/TLR4; cellular TLR4

[11] = target: T1, TLR4 stably expressed on HEK293 cells …; assay: FACS of surface MD-2 on HEK293 cells stably expressing TLR4
[12] = target: recombinant soluble TLR4 extracellular domain (amino acids 24-634), FLAG-tagged (UniProt O00206); assay: co-expression with TLR4ECD, harvested medium incubated 30 min at 37 C with [3H]LOS:sCD14, gel filtration
[13] = target: recombinant soluble TLR4 extracellular domain (amino acids 24-634), FLAG-tagged (UniProt O00206); assay: co-expression in HEK293T cells, medium spiked with [3H]LOS:sCD14, Sephacryl S200 gel filtration; ([3H]LOS:MD-2/TLR4ECD)2 formed
[14] = target: recombinant soluble TLR4 extracellular domain (amino acids 24-634), FLAG-tagged (UniProt O00206); assay: co-expression in HEK293T cells, medium spiked with [3H]LOS:sCD14, Sephacryl S200 gel filtration
[15] = target: T1, TLR4 stably expressed on HEK293 cells …; assay: competition on HEK/TLR4 cells: excess free MD-2 against 3H-LOS:MD-2 (0.75 ng/ml), cell-associated radioactivity

B1: monomeric complex of wild-type (hexa-acylated) N. meningitidis LOS with wild-type human MD-2-His6 (ligand)
chain: QKQYWVCNSSDASISYTYCDKMQYPISINVNPCIELKRSKGLLHIFYIPRRDLKQLYFNLYITVNTMNLPKRKEVICRGSDDDYSFCRALKGETVNTTISFSFKGIKFSKGKYKCVVEAISGSPEEMLFCLEFVILHQPNSNHHHHHH
notes: mature; Mr ~25,000; Radiolabel (3H or 14C) is on the LOS; also called [^3H]LOS:MD-2; [^3H]LOS:MD-2-His6
binding [1]: binds | binding [2]: binds | binding [3]: binds | binding [4]: binds | binding [5]: binds | binding [6]: binds | binding [7]: binds

B2: human MD-2 K125A.F126A double mutant (protein itself, not complexed to endotoxin) (protein, UniProt Q9Y6Y9 19-160, looked up, not shown: small tags and cut ends)
chain: QKQYWVCNSSDASISYTYCDKMQYPISINVNPCIELKRSKGLLHIFYIPRRDLKQLYFNLYITVNTMNLPKRKEVICRGSDDDYSFCRALKGETVNTTISFSFKGIAASKGKYKCVVEAISGSPEEMLFCLEFVILHQPNSN
binding [8]: binds | binding [9]: binds

B3: human MD-2 F121A.K122A double mutant (protein, UniProt Q9Y6Y9 19-160, looked up, not shown: small tags and cut ends)
chain: B2 chain with F103A, K104A, A107K, A108F
binding [10]: binds | binding [11]: binds | binding [12]: binds | binding [13]: binds

B4: wild-type human MD-2-FLAG-His expressed in HEK293T or HEK293/TLR4 cells (protein, UniProt Q9Y6Y9 19-160, looked up, not shown: small tags and cut ends)
chain: B2 chain with A107K, A108F
binding [14]: binds | binding [12]: binds

B5: human MD-2 K122A mutant (protein, UniProt Q9Y6Y9 19-160, looked up, not shown: small tags and cut ends)
chain: B2 chain with K104A, A107K, A108F
binding [11]: binds | binding [12]: binds

B6: human MD-2 K132A mutant (protein, UniProt Q9Y6Y9 19-160, looked up, not shown: small tags and cut ends)
chain: B2 chain with A107K, A108F, K114A
binding [11]: binds | binding [12]: binds

B7: soluble recombinant wild-type MD-2-His6 (not complexed to endotoxin), insect cell conditioned medium (protein, human)
chain: B1 chain
binding [15]: binds
